PubChem BioAssay AID602196 | INSERM, 2012
Here is one part, drawn at random, of about 23,000 reagents tested. 455 of them (2%) were called active. 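Active includes both protection and sensitisation; some change values fall well beyond the stated -50 to +50 range.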 Further read-outs or replicates are left out here. Not stated in the record: the amount of reagent.

Purpose: 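Genes whose knock-down alters cisplatin killing of lung cancer cells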
Cells: human A549 lung cancer cells
Knock-down reagent: siRNA pair against human genes
Time to read-out: 48 h transfection before cisplatin; time from cisplatin to read-out not stated
Treatment: cisplatin at a dose killing half of control-siRNA cells; exact dose and duration not given
Read-out: 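Shift in cisplatin death relative to control siRNA, from -50 (all cells die) to +50 (no cells die); siRNAs harmful on their own scored 0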
Scale: two-siRNA summed score (-2 to +2): higher = both siRNAs protect from cisplatin killing; -2 means both sensitise
Hit rule: 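Each siRNA scores 0 if harmful alone by LDH or WST-1, otherwise +1 if it reduces and -1 if it increases cisplatin killing; a gene is active when both siRNAs agree (sum +2 or -2)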
Calls: active = both siRNAs shift cisplatin killing the same way; inactive = no consistent shift, or siRNA harmful alone

two-siRNA summed score (-2 to +2), by gene and reagent
LOC387721: SID131508915 0 inactive
LOC441494: SID131520985 1 inactive
SERGEF: SID131509393 0 inactive
LOC441061: SID131502611 -1 inactive
P2RX7: SID131517451 0 inactive
CA12: SID131509551 0 inactive
LOC342426: SID131518090 0 inactive
KRT72: SID131510997 0 inactive
CENPF: SID131521694 1 inactive
ASB5: SID131505397 0 inactive
RTL3: SID131514269 0 inactive
OSMR: SID131511799 0 inactive
CDC42EP2: SID131516999 0 inactive
TRAK2: SID131500453 -1 inactive
LOC339951: SID131517160 0 inactive
SFT2D3: SID131514068 0 inactive
LOC389369: SID131518752 0 inactive
GLYAT: SID131520071 1 inactive
LERFS: SID131520653 1 inactive
ALX1: SID131514230 0 inactive
GPM6B: SID131515260 0 inactive
NRIP1: SID131500724 -1 inactive
LOC401477: SID131516015 0 inactive
TMIGD2: SID131510134 0 inactive
SLC8A3: SID131521575 1 inactive
LOC392226: SID131508096 0 inactive
LOC389323: SID131508662 0 inactive
WASH2P: SID131507222 0 inactive
MMP3: SID131518919 1 inactive
SUMO4: SID131517102 0 inactive
OR5M1: SID131510031 0 inactive
PSMF1: SID131522628 1 inactive
LGMN: SID131503810 0 inactive
IL17RA: SID131505816 0 inactive
PSMG3-AS1: SID131509065 0 inactive
CTSV: SID131509180 0 inactive
LOC440960: SID131523038 2 active
CDH15: SID131506637 0 inactive
MPV17L: SID131517020 0 inactive
ALG6: SID131522497 1 inactive
EXOC3L1: SID131516882 0 inactive
PI3: SID131505403 0 inactive
CGA: SID131503756 0 inactive; SID131504081 0 inactive
PPP1R14D: SID131502758 -1 inactive
CYBRD1: SID131509187 0 inactive
RIPPLY2: SID131517035 0 inactive
LOC441359: SID131522459 1 inactive
LOC389142: SID131516964 0 inactive
TSPAN12: SID131506042 0 inactive
ENPP5: SID131508674 0 inactive
SYTL3: SID131503403 0 inactive
CFL1: SID131508264 0 inactive
ERCC6L2: SID131509596 0 inactive
H2BW1: SID131509617 0 inactive
PPID: SID131506728 0 inactive
TSPAN18: SID131516611 0 inactive
